Assay results taken from PubChem BioAssay AID1347076 (National Center for Advancing Translational Sciences (NCATS), 2019).
The campaign covered roughly 400,000 compounds. About 13,000 (3.2%) were called active. Inconclusive means that the source gave no clear call. Such entries were picked first, then a sample of the others. Calls come from the whole dose curve; as a rule, active = well fitted cell-killing curve with a large enough effect; inconclusive = small, poorly fitted or top-dose-only effect, or effect the other way; inactive = flat fitted curve, though single readings scatter. A potency beside an inconclusive call is a rough fit, not a confirmed value.
% is set by controls: 0 for no effect and ±100 for the full control effect; potency is the fitted concentration of half-maximal effect.

Test: qHTS assay for MDR1-selective chemotherapeutics: Primary screen using the drug-selected MDR subline cells KB-V1; note: nearly all actives have a fitted effect of over 60% in size
Details: KB-V1 MDR cells viability, CellTiter-Glo, 72 h; activity change, negative = cytotoxicity: at 46.1 µM (top of the series)
Outline: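 Cells of the MDR subline KB-V1 are plated, dosed with compound at multiple concentrations, and incubated 72 h at 37 degrees C; CellTiter-Glo is then added and luminescence read after 10 min.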
In the case of `Fc1ccc2cc(-c3ccccc3F)ncc2c1`, the Potency is reported as “inactive”.
With `Cc1ccc(S(=O)(=O)N2CCSC2c2ccco2)cc1` (stereo not drawn) the Potency was inconclusive: 29.1 µM [cytotoxic, single point].
With `C[C@@H]1CN([C@@H](C)CO)S(=O)(=O)c2ccc(Br)cc2O[C@H]1CN(C)Cc1ccccc1F` the Potency was inconclusive: 29.1 µM [cytotoxic, single point].
In the case of `Cn1c(=O)c2cc(NC(=S)NCc3ccccc3F)ccc2n1Cc1cccc(C(F)(F)F)c1`, the Potency is reported as “inactive”.
With `O=c1c(Cl)c(N/N=C/c2ccc(Br)cc2)cnn1-c1ccccc1` the Potency was “inactive”.
For `O=c1[nH]c2ccc(Br)cc2c(=O)o1`, the Potency was inconclusive: 29.1 µM [rising, partial curve, poor fit].
In the case of `COc1ccc(NC(=O)c2cc3c(C)nn(-c4ccccc4)c3s2)c(OC)c1`, the Potency is reported as “inactive”.
With `Cc1c(Cl)cccc1Nc1nn2c(=O)c3ccc(C(=O)N(C)Cc4ccccc4)cc3nc2s1` the Potency was inconclusive: 16.4 µM [rising, partial curve, poor fit].
In the case of `COc1ccccc1NC(=O)COc1cccc2c1CCNC2=O`, the Potency is reported as inconclusive: 14.6 µM [cytotoxic, partial curve, poor fit].
For `CC12CCC(C(=O)Nc3cccc(Cl)c3)(C(Br)C1=O)C2(C)C` (stereo not drawn), the Potency was active: 14.6 µM.
In the case of `COc1ccccc1OCC(=O)NC1CCCCCC1`, the Potency is reported as inconclusive: 11.6 µM [cytotoxic, partial curve, poor fit].
For `Cc1cc(C)nc(NC(=O)c2cc(-c3ccc4c(c3)OCO4)nc3ccccc23)c1`, the Potency was inconclusive: 7.31 µM [cytotoxic, partial curve].
With `COC(=O)[C@@]12C[C@@H](CC(=O)NCCCCc3ccccc3)C(=O)N(Cc3ccc4c(c3)OCO4)C1=CCC(C)(C)C2` the Potency was active: 23.1 µM.
In the case of `O=C1C2CCCN2C(c2cccs2)N1c1ccc(Cl)cc1` (stereo not drawn), the Potency is reported as inconclusive: 8.2 µM [cytotoxic, partial curve].
For `Cc1cc(C(=O)N/N=C/c2ccc[nH]2)n[nH]1`, the Potency was “inactive”.
With `CCCC(=O)N1CCC1(C)C(=O)Nc1ccc(OC(F)F)cc1` (stereo not drawn) the Potency was “inactive”.
For `COc1ccc(-c2nc(CSCC(=O)N3CCN(c4ccccc4)CC3)c(C)o2)cc1`, the Potency was inconclusive: 14.6 µM [cytotoxic, partial curve, poor fit].
In the case of `Cc1c(CN2CCC(Oc3ccc(C(=O)N4CCCCC4)cc3)CC2)cnn1C`, the Potency is reported as inconclusive: 16.4 µM [cytotoxic, single point].
In the case of `COc1ccc(C(=O)Cn2c(NCCCO)nc3ccccc32)cc1`, the Potency is reported as inconclusive: 4.11 µM [rising, full curve, poor fit].
In the case of `CCOc1ccc(CCNC(=O)c2cccc(S(=O)(=O)N3CC(C)OC(C)C3)c2)cc1OCC` (stereo not drawn), the Potency is reported as inconclusive: 20.6 µM [cytotoxic, single point].
For `CCOc1ccc(N(CC(=O)N2CCN(c3ccccc3F)CC2)S(=O)(=O)c2c(C)noc2C)cc1`, the Potency was “inactive”.
With `C=C1CCc2c([nH]c3ccc(OCC(C)C)cc23)C1=O` the Potency was inconclusive: 32.6 µM [cytotoxic, single point].
In the case of `Cc1sc2ncnc(Oc3ccc(-n4ccnc4)cc3)c2c1C`, the Potency is reported as inconclusive: 25.9 µM [cytotoxic, single point].
For `Cc1c(NC(=O)Nc2ccccc2Cl)sc(=S)n1C`, the Potency was inconclusive: 7.31 µM [cytotoxic, partial curve, poor fit].
In the case of `C[C@@H]1CCCCO[C@@H](CN(C)CC2CCCCC2)[C@@H](C)CN([C@H](C)CO)C(=O)c2cc(NS(=O)(=O)c3ccc(Cl)cc3)ccc2O1`, the Potency is reported as inconclusive: 29.1 µM [cytotoxic, single point].
For `O=C(O)C1(P(=O)(c2ccc(Cl)cc2)c2ccc(Cl)cc2)CC1`, the Potency was inconclusive: 29.1 µM [rising, single point].
In the case of `O=C(NNC(=S)NC1CCCCC1)c1ccc(Cl)s1`, the Potency is reported as inconclusive: 29.1 µM [cytotoxic, single point].
In the case of `CCN(CC)C(=O)[C@H]1CC(CC(=O)NCCCOC)C(=O)N2CCc3c([nH]c4ccccc34)[C@]12C` (stereo partly drawn), the Potency is reported as “inactive”.
In the case of `O=C(Nc1ccc(C(F)(F)F)cc1)c1csc(-c2ccncc2)n1`, the Potency is reported as inconclusive: 32.6 µM [cytotoxic, single point].
In the case of `Cc1c(NC(=O)c2cc(-c3ccc4c(c3)OCO4)on2)c(=O)n(-c2ccccc2)n1C`, the Potency is reported as inconclusive: 2.91 µM [cytotoxic, full curve, poor fit].
In the case of `O=S(=O)(NCC(O)c1ccccc1)c1ccc(-c2ccccn2)s1` (stereo not drawn), the Potency is reported as inconclusive: 2.91 µM [cytotoxic, partial curve].
For `CC(C)CN1C2CCCC1CC(NC(=O)c1ccc([N+](=O)[O-])cc1)C2` (stereo not drawn), the Potency was inconclusive: 20.6 µM [cytotoxic, single point].
With `C=CCNc1nc(Cl)nc(NC2CCCCC2)n1` the Potency was inconclusive: 20.6 µM [cytotoxic, single point].
With `CC(C)CCNC(=O)C1CCN(S(=O)(=O)c2ccc3nc4c(c(C(=O)O)c3c2)CCCCC4)CC1` the Potency was inconclusive: 4.61 µM [rising, partial curve, poor fit].
In the case of `Cc1cccc(NC(=O)c2ccc3c(c2)C(=O)N(c2ccccn2)C3=O)c1C`, the Potency is reported as inconclusive: 0.0092 µM [rising, full curve, poor fit].
For `CCOC(=O)C1=C(CC)Nc2ccccc2N=C1NC(=O)c1ccc(S(=O)(=O)N2CCCC2)cc1`, the Potency was inconclusive: 13 µM [cytotoxic, partial curve].
For `COc1ccc(C(CNC(=O)COc2ccc(Cl)cc2C)N2CCCCC2)cc1` (stereo not drawn), the activity change, negative = cytotoxicity was inconclusive: 5.8%.
With `CC(C)N(Cc1nccn1C)C(=O)c1ccc(OC2CCN(C(=O)C3CC3)CC2)cc1` the Potency was “inactive”.
In the case of `CCOC(=O)Cn1cnc2c(cnn2-c2ccc(Cl)cc2)c1=O`, the Potency is reported as inconclusive: 16.4 µM [cytotoxic, single point].
For `COc1ccc(-n2c(C(C)(C)C)csc2=Nc2c(C)n(C)n(-c3ccccc3)c2=O)cc1`, the Potency was “inactive”.
In the case of `C#CCOc1nc(OCC#C)nc(OCC#C)n1`, the Potency is reported as “inactive”.
With `COc1ccccc1OC(C)C(=O)N1CCC(Cc2ccccc2)CC1` (stereo not drawn) the Potency was inconclusive: 1.3 µM [cytotoxic, full curve].
With `O=C(CSc1nc2ccccc2s1)Nc1ccc(Cl)c(C(=O)O)c1` the Potency was inconclusive: 10.3 µM [rising, partial curve, poor fit].
For `CCN(C(=O)c1cc2c(s1)-c1ccccc1OC2)c1cccc(C(F)(F)F)c1`, the Potency was “inactive”.
For `COc1ccc(NC(=O)Nc2nnc(N(CC(C)C)CC(C)C)s2)c(OC)c1`, the Potency was inconclusive: 16.4 µM [cytotoxic, partial curve, poor fit].
For `O=C(NC1CC2CCCC(C1)N2C(=O)Nc1cccc(F)c1)C1CC1` (stereo not drawn), the activity change, negative = cytotoxicity was inconclusive: -40.2%.
In the case of `CCOC(=O)c1ccccc1NC(=O)Nc1ccc(OC)c(OC)c1`, the Potency is reported as “inactive”.
For `O=C(CSc1nnc(COc2ccccc2)o1)Nc1cc(C(F)(F)F)ccc1Cl`, the Potency was “inactive”.
In the case of `O=C1NCCCCC1NS(=O)(=O)c1cccc(C(F)(F)F)c1` (stereo not drawn), the Potency is reported as “inactive”.
For `COc1cccc(NC(=S)N2CCCC2)c1`, the Potency was inconclusive: 4.61 µM [rising, partial curve, poor fit].
With `CCc1cccc(CC)c1NC(=O)COC(=O)c1ccccc1-c1nc2ccccc2s1` the Potency was inconclusive: 16.4 µM [cytotoxic, single point].
For `Cc1cc(OCC(=O)OCC(=O)NC2CCCCCC2)ccc1Cl`, the Potency was inconclusive: 1.16 µM [rising, partial curve, poor fit].
For `COc1cccc(OCC(=O)Nc2ccccc2-c2ccccc2)c1`, the Potency was inconclusive: 29.1 µM [cytotoxic, single point].
For `O=C(NNC(=S)NCc1ccccc1)c1ccc2c(c1)OCO2`, the Potency was inconclusive: 0.461 µM [rising, single point].
In the case of `CC(C#N)(CCc1ccccn1)CCc1ccccn1`, the Potency is reported as inconclusive: 0.461 µM [cytotoxic, full curve, poor fit].
In the case of `Cc1cc(C)nc(/N=C(\N)Nc2ccc3c(c2)OCCO3)n1`, the Potency is reported as “inactive”.
For `CNc1nc(C)c(C(=O)OCc2ccccc2)s1`, the Potency was active: 20.6 µM.
With `CC(C)CCN1CCN(Cc2nc(-c3ccccc3)cs2)CC1CCO` (stereo not drawn) the Potency was inconclusive: 20.6 µM [cytotoxic, single point].
For `COC(=O)[C@@]1(Cc2ccc(F)cc2)[C@H]2c3cc(C(=O)N4CCCC4)n(CC4CC4)c3C[C@H]2CN1C(=O)c1ccccc1`, the Potency was inconclusive: 23.1 µM [cytotoxic, partial curve].
For `O=C(CCC(=O)c1ccc(Br)cc1)Nc1cccnc1`, the Potency was “inactive”.
In the case of `COc1ccc(NC(=O)CN(C)S(=O)(=O)c2cnc[nH]2)cc1OC`, the Potency is reported as inconclusive: 2.06 µM [rising, partial curve, poor fit].
With `Cc1nonc1NC(=O)CSc1nc2c(C)cccc2cc1C#N` the Potency was inconclusive: 23.1 µM [cytotoxic, single point].
For `O=C(C1CCCCC1)N1CCC(c2nc3c(nnn3Cc3ccccc3Cl)c(=O)[nH]2)CC1`, the Potency was “inactive”.
With `CCn1c(=NC(=O)CCS(=O)(=O)c2ccccc2)sc2cccc(OC)c21` the Potency was inconclusive: 29.1 µM [cytotoxic, single point].
With `FC(F)(F)c1cnc(-c2cnc(-c3ccccn3)nc2)c(Cl)c1` the Potency was inconclusive: 23.1 µM [cytotoxic, single point].
For `CC1CCN(C(=O)CN2C(=O)C(C)(C)Oc3ccc(C(=O)NC(C)C)cc32)CC1`, the Potency was “inactive”.
With `Cc1ccc(-c2ccc(S(=O)(=O)Nc3cccnc3)cc2)cc1` the Potency was inconclusive: 11.6 µM [cytotoxic, partial curve].
For `COc1ccc(-c2noc(CNC(=O)c3ccc4c(c3)OCO4)n2)cc1`, the Potency was inconclusive: 18.4 µM [cytotoxic, single point].
